Literature values, collected in patent US6372783B1, “Enantiomeric compounds for treatment of cardiac arrhythmias and methods of use” (Aryx Therapeutics, priority 1999, dated 2002).

Conditions: share of the time that pulmonary toxicity is fatal; cited from earlier work

## CCCCc1oc2ccccc2c1C(=O)c1cc(I)c(OCCN(CC)CC)c(I)c1 [Amiodarone]
  pulmonary toxicity, fatal: 10%
